The target of the experiment is T1, FLAG-USP13-C345A (human) (UniProt Q92995).
T1 sequence: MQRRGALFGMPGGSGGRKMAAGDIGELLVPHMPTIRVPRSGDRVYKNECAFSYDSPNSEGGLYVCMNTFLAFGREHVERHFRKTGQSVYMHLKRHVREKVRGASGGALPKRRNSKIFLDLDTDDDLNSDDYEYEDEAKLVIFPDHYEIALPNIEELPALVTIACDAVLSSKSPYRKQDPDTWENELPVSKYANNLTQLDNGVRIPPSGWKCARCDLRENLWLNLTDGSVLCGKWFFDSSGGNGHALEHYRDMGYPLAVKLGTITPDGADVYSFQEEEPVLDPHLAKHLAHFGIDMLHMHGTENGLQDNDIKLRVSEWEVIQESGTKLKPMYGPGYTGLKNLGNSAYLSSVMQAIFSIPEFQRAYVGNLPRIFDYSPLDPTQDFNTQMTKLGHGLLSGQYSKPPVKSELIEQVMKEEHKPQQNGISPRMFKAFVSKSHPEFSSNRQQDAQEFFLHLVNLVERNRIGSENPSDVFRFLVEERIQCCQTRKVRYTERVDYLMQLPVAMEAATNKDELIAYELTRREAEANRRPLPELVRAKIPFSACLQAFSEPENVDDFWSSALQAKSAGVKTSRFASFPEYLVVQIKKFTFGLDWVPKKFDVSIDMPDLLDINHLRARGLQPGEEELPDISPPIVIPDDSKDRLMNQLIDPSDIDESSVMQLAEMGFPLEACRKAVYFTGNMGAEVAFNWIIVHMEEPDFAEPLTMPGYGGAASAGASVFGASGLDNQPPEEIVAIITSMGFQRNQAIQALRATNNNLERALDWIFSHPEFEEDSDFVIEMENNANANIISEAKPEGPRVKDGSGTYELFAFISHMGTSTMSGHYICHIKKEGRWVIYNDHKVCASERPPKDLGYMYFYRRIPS
Description: co-IP; HEK293T transfected for 48 h, MG-132 for 8 h (Fig. 4a); IP lysis buffer (50 mM Tris-HCl pH 8.0, 150 mM NaCl, 10 mM KCl, 1.5 mM MgCl2, 0.5% NP-40, 10% glycerol, 1 mM EDTA); FLAG-USP13 precipitated on anti-FLAG M2 beads at 4 °C overnight, eluted with 3×FLAG peptide; MCL1 detected by blot.

By UniProt entry, the sequences of proteins in these tests, tags left out. Where a name states a change or a piece, a line headed by the entry shows the natural chain unless it says otherwise.
UniProt Q07820: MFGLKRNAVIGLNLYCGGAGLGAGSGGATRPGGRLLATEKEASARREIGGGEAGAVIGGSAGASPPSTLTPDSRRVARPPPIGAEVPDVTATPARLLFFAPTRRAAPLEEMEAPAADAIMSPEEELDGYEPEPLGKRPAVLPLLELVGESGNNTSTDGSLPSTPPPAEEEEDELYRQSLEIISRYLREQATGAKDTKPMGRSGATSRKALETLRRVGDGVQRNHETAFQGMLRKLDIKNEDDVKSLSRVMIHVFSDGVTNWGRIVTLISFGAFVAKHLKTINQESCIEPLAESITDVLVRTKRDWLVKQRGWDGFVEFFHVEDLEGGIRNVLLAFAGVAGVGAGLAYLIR

These are yes or no findings as the source states them, for the method shown. Binding seen in cells or lysates may run through a third protein. Some entries that bind do so weakly or less than the wild type. Sequences can lack the tags named with a protein.

For the substance “MCL1 in lysate of HEK293T cells transfected with FLAG-USP13 or FLAG-USP13-C345A (from UniProt Q07820 1-350)”, the binding result is “binds”.

The values are drawn from publication PMC5768685.
